According to paper PMC4885101:
Results are given in words; binding and its absence hold for the method and conditions named. In cells and extracts the contact can be indirect. Sequences can lack the tags named with a protein.

Protein sequences, listed by entry. Tags and fused reporters are not part of them.
UniProt Q7Z434: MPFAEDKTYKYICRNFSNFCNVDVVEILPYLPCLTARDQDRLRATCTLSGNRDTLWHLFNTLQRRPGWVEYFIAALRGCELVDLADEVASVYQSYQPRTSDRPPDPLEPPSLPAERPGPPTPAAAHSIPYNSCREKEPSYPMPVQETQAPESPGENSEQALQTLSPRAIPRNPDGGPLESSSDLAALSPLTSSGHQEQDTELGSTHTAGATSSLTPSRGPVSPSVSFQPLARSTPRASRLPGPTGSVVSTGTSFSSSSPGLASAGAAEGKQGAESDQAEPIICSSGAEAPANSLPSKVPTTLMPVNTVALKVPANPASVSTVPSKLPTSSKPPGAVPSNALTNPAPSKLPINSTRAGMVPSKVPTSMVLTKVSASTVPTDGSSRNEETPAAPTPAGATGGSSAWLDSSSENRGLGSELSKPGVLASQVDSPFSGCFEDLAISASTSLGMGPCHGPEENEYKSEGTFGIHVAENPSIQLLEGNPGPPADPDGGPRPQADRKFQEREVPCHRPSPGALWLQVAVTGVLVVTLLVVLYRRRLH

Legend:
Flag-tagged MAVS = Flag-tagged MAVS (UniProt Q7Z434); experiment: co-IP
Flag-tagged TBK1 = molecular target: T1, Flag-tagged TBK1 (UniProt Q9UHD2); experiment: co-IP
T1 sequence: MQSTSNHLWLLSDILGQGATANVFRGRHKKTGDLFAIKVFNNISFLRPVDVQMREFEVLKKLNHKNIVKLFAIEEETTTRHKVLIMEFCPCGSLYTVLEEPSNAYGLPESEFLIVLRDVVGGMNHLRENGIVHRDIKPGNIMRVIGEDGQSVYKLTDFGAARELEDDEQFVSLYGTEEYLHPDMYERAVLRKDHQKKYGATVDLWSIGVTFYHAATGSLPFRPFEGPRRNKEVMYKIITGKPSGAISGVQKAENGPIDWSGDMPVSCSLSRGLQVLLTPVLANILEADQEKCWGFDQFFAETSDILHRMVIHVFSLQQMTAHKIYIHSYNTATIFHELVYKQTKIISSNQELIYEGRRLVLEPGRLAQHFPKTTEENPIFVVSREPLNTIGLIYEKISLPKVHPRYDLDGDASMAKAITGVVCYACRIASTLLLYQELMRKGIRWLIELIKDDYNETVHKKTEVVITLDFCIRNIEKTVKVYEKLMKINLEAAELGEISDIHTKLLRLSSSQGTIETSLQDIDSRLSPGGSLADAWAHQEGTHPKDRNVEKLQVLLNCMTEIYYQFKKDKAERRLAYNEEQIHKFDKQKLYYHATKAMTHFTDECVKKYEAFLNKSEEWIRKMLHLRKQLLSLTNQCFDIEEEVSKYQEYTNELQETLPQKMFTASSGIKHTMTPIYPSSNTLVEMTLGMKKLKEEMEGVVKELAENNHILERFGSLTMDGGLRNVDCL

- binding (Flag-tagged MAVS): no binding
- binding (Flag-tagged TBK1): no binding
B1: HA-tagged HACE1 (HECT domain and ankyrin repeat-containing E3 ubiquitin protein ligase 1) (enzyme, UniProt Q8IYU2 1-909)
chain: MERAMEQLNRLTRSLRRARTVELPEDNETAVYTLMPMVMADQHRSVSELLSNSKFDVNYAFGRVKRSLLHIAANCGSVECLVLLLKKGANPNYQDISGCTPLHLAARNGQKKCMSKLLEYSADVNICNNEGLTAIHWLAVNGRTELLHDLVQHVSDVDVEDAMGQTALHVACQNGHKTTVQCLLDSGADINRPNVSGATPLYFACSHGQRDTAQILLLRGAKYLPDKNGVTPLDLCVQGGYGETCEVLIQYHPRLFQTIIQMTQNEDLRENMLRQVLEHLSQQSESQYLKILTSLAEVATTNGHKLLSLSSNYDAQMKSLLRIVRMFCHVFRIGPSSPSNGIDMGYNGNKTPRSQVFKPLELLWHSLDEWLVLIATELMKNKRDSTEITSILLKQKGQDQDAASIPPFEPPGPGSYENLSTGTRESKPDALAGRQEASADCQDVISMTANRLSAVIQAFYMCCSCQMPPGMTSPRFIEFVCKHDEVLKCFVNRNPKIIFDHFHFLLECPELMSRFMHIIKAQPFKDRCEWFYEHLHSGQPDSDMVHRPVNENDILLVHRDSIFRSSCEVVSKANCAKLKQGIAVRFHGEEGMGQGVVREWFDILSNEIVNPDYALFTQSADGTTFQPNSNSYVNPDHLNYFRFAGQILGLALNHRQLVNIYFTRSFYKHILGIPVNYQDVASIDPEYAKNLQWILDNDISDLGLELTFSVETDVFGAMEEVPLKPGGGSILVTQNNKAEYVQLVTELRMTRAIQPQINAFLQGFHMFIPPSLIQLFDEYELELLLSGMPEIDVSDWIKNTEYTSGYEREDPVIQWFWEVVEDITQEERVLLLQFVTGSSRVPHGGFANIMGGSGLQNFTIAAVPYTPNLLPTSSTCINMLKLPEYPSKEILKDRLLVALHCGSYGYTMA
